Patent publication US20120100073A1, “PET RADIOTRACERS FOR IMAGING FATTY ACID METABOLISM AND STORAGE” (WASHINGTON UNIVERSITY, priority 2009, published 2012)

Assay: microPET imaging and myocardial time-activity curves (tracer kinetics) in a fed rat
Format: in vivo
Details: data acquired 20-30 mins after tracer injection
Procedure: Animal Preparation. All animal procedures are conducted in compliance with the guidelines for the care and use of research animals established by the Animal Studies Committee of Washington University. Animal preparation is performed as described previously.^24-26 Rats are housed in metabolism cages and anesthetized by inhalation of […] isoflurane administered via an induction chamber. Anesthesia can be maintained throughout the imaging session by delivering 1%-1.5% isoflurane via a custom-designed nose cone. Venous access is via the right jugular vein. Body temperature can be maintained using a circulating water blanket and a heat lamp. Heart and respiration rates can be monitored throughout the process.
PET Acquisition. The animals can be secured in a custom-designed acrylic restraining device and placed inside the field of view of the small-animal imaging PET scanner. Imaging acquisition starts Ss after a bolus injection of tracer via the right jugular catheter. The imaging protocol consists of dynamic acquisition of microPET images of ^11C-palmitate (5-7mCI) followed by ^18F-FAA or by ^18F-VLDL (5-7mCi) alone. Dynamic mage acquisition during ^11C-palmitate and either ^18F-FAA or ^18F-FAA-VLDL can be 30 and 60 min, respectively. The total time of the imaging session can be ˜3 hrs. […]

O=C(O)CCCCCCCCCCCCCCc1ccc(OCC[18F])cc1 [^18F-FAA]
image quality of myocardial microPET images: excellent quality
tracer activity in images compared with ^11C-palmitate images: higher tracer activity than ^11C-palmitate images
